# Source: paper doi:10.1101/2021.04.23.441060
# Chains of the proteins cited; added tags and fusions are not shown.
# UniProt P48432: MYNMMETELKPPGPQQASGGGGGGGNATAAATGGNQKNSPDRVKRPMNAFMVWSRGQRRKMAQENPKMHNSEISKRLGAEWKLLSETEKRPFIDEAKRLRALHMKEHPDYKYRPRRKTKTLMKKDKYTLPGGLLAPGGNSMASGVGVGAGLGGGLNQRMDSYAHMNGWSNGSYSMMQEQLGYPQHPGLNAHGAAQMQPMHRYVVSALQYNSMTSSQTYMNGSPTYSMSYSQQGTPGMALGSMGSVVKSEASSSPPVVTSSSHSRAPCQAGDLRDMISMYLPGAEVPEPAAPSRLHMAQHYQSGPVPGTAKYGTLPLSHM
# UniProt O09106: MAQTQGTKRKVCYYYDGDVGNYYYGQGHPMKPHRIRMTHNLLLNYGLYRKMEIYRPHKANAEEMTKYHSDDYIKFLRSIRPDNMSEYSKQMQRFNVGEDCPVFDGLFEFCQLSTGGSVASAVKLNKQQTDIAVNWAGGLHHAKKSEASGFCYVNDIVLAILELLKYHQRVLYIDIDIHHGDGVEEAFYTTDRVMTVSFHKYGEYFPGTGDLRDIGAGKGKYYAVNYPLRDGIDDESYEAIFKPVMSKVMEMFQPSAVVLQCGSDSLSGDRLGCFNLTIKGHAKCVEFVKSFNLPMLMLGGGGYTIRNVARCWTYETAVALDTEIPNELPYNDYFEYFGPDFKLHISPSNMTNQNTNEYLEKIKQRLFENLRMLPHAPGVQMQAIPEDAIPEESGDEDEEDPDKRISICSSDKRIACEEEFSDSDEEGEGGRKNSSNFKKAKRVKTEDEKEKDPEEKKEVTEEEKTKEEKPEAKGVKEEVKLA
# UniProt P70288: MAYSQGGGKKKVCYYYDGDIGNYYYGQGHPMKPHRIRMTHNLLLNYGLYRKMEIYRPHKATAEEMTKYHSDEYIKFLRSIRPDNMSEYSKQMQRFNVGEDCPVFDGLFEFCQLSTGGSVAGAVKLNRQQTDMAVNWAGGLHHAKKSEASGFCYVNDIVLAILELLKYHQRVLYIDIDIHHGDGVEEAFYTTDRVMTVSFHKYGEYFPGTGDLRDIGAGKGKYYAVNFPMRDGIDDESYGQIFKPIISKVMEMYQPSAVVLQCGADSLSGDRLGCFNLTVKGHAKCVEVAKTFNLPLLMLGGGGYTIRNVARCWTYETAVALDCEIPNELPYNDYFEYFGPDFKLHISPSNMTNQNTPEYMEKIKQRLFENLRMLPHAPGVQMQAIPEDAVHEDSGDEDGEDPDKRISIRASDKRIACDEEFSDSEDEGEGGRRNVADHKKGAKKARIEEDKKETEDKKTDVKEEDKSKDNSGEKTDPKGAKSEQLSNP
# UniProt Q08122: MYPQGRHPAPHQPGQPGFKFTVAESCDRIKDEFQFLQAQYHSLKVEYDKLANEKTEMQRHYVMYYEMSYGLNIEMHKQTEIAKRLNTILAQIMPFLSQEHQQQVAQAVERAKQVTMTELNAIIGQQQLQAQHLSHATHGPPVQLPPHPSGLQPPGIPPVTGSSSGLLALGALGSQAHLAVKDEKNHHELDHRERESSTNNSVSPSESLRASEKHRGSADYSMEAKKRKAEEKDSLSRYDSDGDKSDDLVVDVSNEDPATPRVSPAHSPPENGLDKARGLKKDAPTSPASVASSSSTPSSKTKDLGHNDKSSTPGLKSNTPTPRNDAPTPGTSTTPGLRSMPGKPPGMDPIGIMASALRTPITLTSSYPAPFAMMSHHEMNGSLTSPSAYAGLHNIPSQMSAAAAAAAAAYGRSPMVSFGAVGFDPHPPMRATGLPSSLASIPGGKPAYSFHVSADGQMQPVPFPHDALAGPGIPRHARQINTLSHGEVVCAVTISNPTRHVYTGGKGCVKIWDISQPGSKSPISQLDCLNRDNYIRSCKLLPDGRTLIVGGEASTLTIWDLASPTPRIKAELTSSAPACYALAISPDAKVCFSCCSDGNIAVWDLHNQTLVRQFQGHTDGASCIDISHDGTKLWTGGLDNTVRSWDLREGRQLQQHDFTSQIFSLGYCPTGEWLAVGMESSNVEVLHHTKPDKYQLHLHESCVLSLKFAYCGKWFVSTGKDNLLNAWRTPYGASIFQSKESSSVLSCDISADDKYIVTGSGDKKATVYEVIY
# UniProt P11103: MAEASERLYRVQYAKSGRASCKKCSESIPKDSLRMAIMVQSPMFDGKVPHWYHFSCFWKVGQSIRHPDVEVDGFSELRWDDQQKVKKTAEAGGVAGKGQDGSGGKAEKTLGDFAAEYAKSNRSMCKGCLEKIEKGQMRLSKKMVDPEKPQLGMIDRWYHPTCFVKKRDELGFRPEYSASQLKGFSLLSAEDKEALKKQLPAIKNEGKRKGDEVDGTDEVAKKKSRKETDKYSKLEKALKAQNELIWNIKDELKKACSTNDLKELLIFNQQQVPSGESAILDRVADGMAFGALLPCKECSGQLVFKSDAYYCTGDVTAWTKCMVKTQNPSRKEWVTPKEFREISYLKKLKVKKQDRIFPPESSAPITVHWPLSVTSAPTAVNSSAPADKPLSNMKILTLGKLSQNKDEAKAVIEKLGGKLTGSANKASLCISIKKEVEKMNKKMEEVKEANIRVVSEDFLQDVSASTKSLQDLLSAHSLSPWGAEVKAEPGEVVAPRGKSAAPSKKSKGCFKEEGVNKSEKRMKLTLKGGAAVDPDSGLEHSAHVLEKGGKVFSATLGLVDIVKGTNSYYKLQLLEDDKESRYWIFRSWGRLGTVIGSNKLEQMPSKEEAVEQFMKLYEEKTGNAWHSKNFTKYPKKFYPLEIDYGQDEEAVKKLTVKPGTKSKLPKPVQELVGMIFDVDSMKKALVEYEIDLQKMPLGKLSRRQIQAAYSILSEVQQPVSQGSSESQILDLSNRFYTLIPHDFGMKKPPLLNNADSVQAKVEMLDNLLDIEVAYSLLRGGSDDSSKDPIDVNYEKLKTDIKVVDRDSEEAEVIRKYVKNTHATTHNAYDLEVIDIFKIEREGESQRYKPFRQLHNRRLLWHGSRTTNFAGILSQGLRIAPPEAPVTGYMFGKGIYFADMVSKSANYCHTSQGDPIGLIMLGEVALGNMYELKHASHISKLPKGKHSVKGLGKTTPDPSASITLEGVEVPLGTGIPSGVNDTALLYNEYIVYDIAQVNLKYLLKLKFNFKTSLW
# Target: Sox2 (not stated (endogenous in primary rodent OLs; mouse and rat cultures were made)) (UniProt P48432)
# Experiment: affinity purification with mass spectrometry
substance,measurement,value
HDAC1 (from UniProt O09106 1-482) (enzyme),binding,binds
HDAC2 (from UniProt P70288 1-488) (enzyme),binding,binds
TLE3 (from UniProt Q08122 1-772),binding,binds
poly (ADP-ribose) polymerase 1 (PARP1) (from UniProt P11103 1-1013) (enzyme),binding,binds

# These are yes or no findings as the source states them, for the method shown. In cells and extracts the contact can be indirect. Here binding means that the protein was enriched with, or labelled near, the bait; the list need not be complete.
